PubChem BioAssay AID1259308, NCATS, 2017
The whole screen tested about 59,000 reagents; shown is a random part of them. About 1,510 of them (2.6%) count as active. 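Calls use total luciferase alone and ignore viability, so some active siRNAs may act by altering cell number.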 The numbers tell different reagents against one gene apart. Not all columns of the deposit are shown.

Screen: 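Candidate targets for better recombinant protein yield in mammalian cells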 (primary screen)
Cell system: human HEK293 embryonic kidney cells stably expressing firefly luciferase (HEK-CMV-Luc2-Hygro)
Knock-down reagent: single siRNA against human genes, 0.8 pmol siRNA per well
Timing: 72 h
Read-out: 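Reporter luminescence and viable-cell signal on separate replicate plates, given as percent of non-targeting control and median/MAD z-scores, plus per-cell luciferase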
Scale: total luciferase, z-score and total luciferase, % of control: higher = more reporter protein produced
Hit rule: 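An siRNA counts as active if its total luciferase robust z-score exceeds 3; genes with two or more such siRNAs out of three were retested with fresh siRNAs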
Meaning of the calls: active = raised luciferase; inactive = no rise

KIAA1549 #1 scored total luciferase, z-score 0.93; total luciferase, % of control 100; inactive.
Knock-down of KIAA1549 #2 gave: total luciferase, z-score 1.62; total luciferase, % of control 114; inactive.
Against KIAA1549 #3, the values are total luciferase, z-score 0.438; total luciferase, % of control 90.6; inactive.
PDZD11 (PDZ domain containing 11) #1 gave total luciferase, z-score 5.45; total luciferase, % of control 190; active.
With knock-down of PDZD11 (PDZ domain containing 11) #2, the record shows total luciferase, z-score 0.0664; total luciferase, % of control 83.2; inactive.
For PDZD11 (PDZ domain containing 11) #3 the deposit lists total luciferase, z-score -1.42; total luciferase, % of control 53.7; inactive.
After knock-down of CDH16 (cadherin 16) #1, the screen gave total luciferase, z-score 0.922; total luciferase, % of control 100; inactive.
For CDH16 (cadherin 16) #2, the entry reads total luciferase, z-score -0.16; total luciferase, % of control 78.7; inactive.
Knock-down of CDH16 (cadherin 16) #3 came out at: total luciferase, z-score -0.145; total luciferase, % of control 79; inactive.
MFN1P1 (MFN1 pseudogene 1) #1 gave total luciferase, z-score 0.0936; total luciferase, % of control 83.7; inactive.
MFN1P1 (MFN1 pseudogene 1) #2 showed total luciferase, z-score 0.0699; total luciferase, % of control 83.3; inactive.
For MFN1P1 (MFN1 pseudogene 1) #3 the deposit lists total luciferase, z-score -0.605; total luciferase, % of control 69.9; inactive.
Silencing of MSN (moesin) #1 resulted in: total luciferase, z-score -1.34; total luciferase, % of control 55.3; inactive.
Silencing of MSN (moesin) #2 gave: total luciferase, z-score -1.31; total luciferase, % of control 55.9; inactive.
With knock-down of MSN (moesin) #3, the screen gave total luciferase, z-score 4.99; total luciferase, % of control 181; active.
Depletion of VAMP1 (vesicle associated membrane protein 1) #1 gave: total luciferase, z-score 0.849; total luciferase, % of control 98.8; inactive.
After knock-down of VAMP1 (vesicle associated membrane protein 1) #2 the results were total luciferase, z-score -0.327; total luciferase, % of control 75.4; inactive.
Knock-down of VAMP1 (vesicle associated membrane protein 1) #3 resulted in: total luciferase, z-score -0.0482; total luciferase, % of control 80.9; inactive.
Silencing of ZNF517 (zinc finger protein 517) #1 gave: total luciferase, z-score -1.41; total luciferase, % of control 53.8; inactive.
Depletion of ZNF517 (zinc finger protein 517) #2 came out at: total luciferase, z-score 0.753; total luciferase, % of control 96.9; inactive.
ZNF517 (zinc finger protein 517) #3 gave total luciferase, z-score -0.249; total luciferase, % of control 76.9; inactive.
With knock-down of MAPKAPK5 (MAPK activated protein kinase 5) #1, the screen gave total luciferase, z-score -1.87; total luciferase, % of control 44.7; inactive.
Knock-down of MAPKAPK5 (MAPK activated protein kinase 5) #2 resulted in: total luciferase, z-score 0.382; total luciferase, % of control 89.5; inactive.
Depletion of MAPKAPK5 (MAPK activated protein kinase 5) #3 resulted in: total luciferase, z-score 3.37; total luciferase, % of control 149; active.
With knock-down of TRMT2A (tRNA methyltransferase 2A) #1 the results were total luciferase, z-score -0.351; total luciferase, % of control 74.9; inactive.
For TRMT2A (tRNA methyltransferase 2A) #2, the values are total luciferase, z-score 0.757; total luciferase, % of control 96.9; inactive.
Silencing of TRMT2A (tRNA methyltransferase 2A) #3 resulted in: total luciferase, z-score 0.0114; total luciferase, % of control 82.1; inactive.
Against PACS2 (phosphofurin acidic cluster sorting protein 2) #1 the deposit lists total luciferase, z-score 1.35; total luciferase, % of control 109; inactive.
Depletion of PACS2 (phosphofurin acidic cluster sorting protein 2) #2 resulted in: total luciferase, z-score 2.77; total luciferase, % of control 137; inactive.
Against PACS2 (phosphofurin acidic cluster sorting protein 2) #3, the values are total luciferase, z-score 0.949; total luciferase, % of control 101; inactive.
For CSTL1 (cystatin like 1) #1 the deposit lists total luciferase, z-score 0.305; total luciferase, % of control 88; inactive.
CSTL1 (cystatin like 1) #2 scored total luciferase, z-score 0.268; total luciferase, % of control 87.2; inactive.
With knock-down of CSTL1 (cystatin like 1) #3, the record shows total luciferase, z-score 0.0573; total luciferase, % of control 83; inactive.
